# From US20140199292A1, “COMPOSITIONS AND METHODS FOR INHIBITING TUMOR DEVELOPMENT CAUSED BY CHEMOTHERAPY INDUCED SENESCENCE” (INSERM (Institut National de la Sante et de la Recherche …, priority 2011, published 2014)
# At least one structure is not confirmed: it was looked up by name or label, or the drawing left a doubt.
# Tests used:
# [1] = system: 501mel human melanoma cells; assay: Senescence of 501mel melanoma cells (morphology, SA-b-Gal staining at pH6); type: cell-based; conditions: flattened and enlarged morphology, SA-b-Gal reactivity at pH6
# Procedure: 501mel human melanoma cells and MCF7 human breast cancer cells were grown in DMEM supplemented with 7% FBS at 37° C. in a humidified atmosphere containing 5% CO2. Lipofectamine™ RNAiMAX and opti-MEM medium were purchased from Invitrogen (San Diego, Calif., USA). TNFa and recombinant human CCL2 were from PeproTech Inc (Rocky Hill, N.J.), sulfasalazine and 3-AB from Sigma Chem. Co (St Louis, Mo.), mouse anti-CCL2 from R&D Systems and KU55933 from Calbiochem. The senescence b-galactosidase staining kit from Cell Signaling Technology (Beverly, Mass., USA) was used to histochemically detect b-galactosidase activity at pH6 as previously reported (Giuliano et al. 2010a). The percentage of means and standard deviations were derived from counting 100 cells in duplicate plates after 96 hrs.
# MITF = conditions: Mhaidat et al. 2007; Liu et al. 2009; cited from earlier work
compound,measurement,setting,value
Cn1nnc2c(C(N)=O)ncn2c1=O [temozolomide],senescence of melanoma cells,[1],underwent premature senescence
same,MITF expression,MITF,decreased the expression of MITF
